Reference: patent publication US7410975B2, “Small molecule toll-like receptor (TLR) antagonists” (Coley Pharmaceutical Group, Inc., priority 2003, dated 2008)

Key:
Assay type in all cases: cell-based
human TLR9 (hTLR9) = target: T1, human TLR9 (hTLR9) (Homo sapiens, UniProt Q9NR96); experiment: Antagonist screen, hTLR9-NFκB-293 cells, 6× NF-κB-luciferase reporter, with EC50 of CpG ODN 2006; conditions: compound at 0.5, 5, 50 μg/ml, EC50 concentration of CpG ODN 2006, 16 h
T1 construct: expressed in transfected cells
T1 sequence (Q9NR96 26-1032): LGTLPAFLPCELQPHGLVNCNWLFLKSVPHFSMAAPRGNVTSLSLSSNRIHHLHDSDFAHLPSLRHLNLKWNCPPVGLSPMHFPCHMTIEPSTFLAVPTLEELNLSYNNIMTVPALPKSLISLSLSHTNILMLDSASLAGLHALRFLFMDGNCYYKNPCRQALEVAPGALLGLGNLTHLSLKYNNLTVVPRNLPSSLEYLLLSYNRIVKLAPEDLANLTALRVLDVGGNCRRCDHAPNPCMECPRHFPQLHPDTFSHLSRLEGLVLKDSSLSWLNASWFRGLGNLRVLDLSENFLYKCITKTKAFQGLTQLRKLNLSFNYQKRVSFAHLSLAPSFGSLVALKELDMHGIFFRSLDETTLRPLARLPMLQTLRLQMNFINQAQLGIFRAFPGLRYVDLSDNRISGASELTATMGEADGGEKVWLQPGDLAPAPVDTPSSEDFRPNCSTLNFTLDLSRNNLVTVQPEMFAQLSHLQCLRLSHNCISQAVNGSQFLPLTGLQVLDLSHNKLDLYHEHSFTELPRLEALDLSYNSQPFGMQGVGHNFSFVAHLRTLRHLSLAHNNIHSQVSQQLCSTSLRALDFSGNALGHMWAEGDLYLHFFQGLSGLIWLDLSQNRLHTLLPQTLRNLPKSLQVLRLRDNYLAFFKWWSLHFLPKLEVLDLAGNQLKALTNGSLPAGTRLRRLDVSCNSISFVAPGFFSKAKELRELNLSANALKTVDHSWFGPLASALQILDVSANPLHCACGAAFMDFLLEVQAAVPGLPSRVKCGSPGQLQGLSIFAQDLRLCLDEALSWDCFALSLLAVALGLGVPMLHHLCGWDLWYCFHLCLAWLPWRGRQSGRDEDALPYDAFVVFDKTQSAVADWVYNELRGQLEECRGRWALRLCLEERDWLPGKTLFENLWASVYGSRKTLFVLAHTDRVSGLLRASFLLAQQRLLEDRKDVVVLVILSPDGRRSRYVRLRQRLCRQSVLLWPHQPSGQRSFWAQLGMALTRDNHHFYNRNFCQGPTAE
Method: Candidate small molecules for initial screening were obtained from a commercially available library of 880 off-patent small molecules selected for structural diversity and proven bioavailability in humans (Prestwick Chemical Library). […] Results were measured as fold induction over baseline luciferase activity measured in the absence of ODN 2006 and compared to fold induction over baseline in the presence of the EC50 concentration of ODN 2006 alone. From this initial screening a number of small molecules were identified as lead compounds and were categorized by structure and activity. […]
The method is described in greater detail as follows. The cells for each individual cell clone (hTLR3-NFκB-293, hTLR7-NFκB-293, hTLR8-NFκB-293 and hTLR9-NFκB-293) were counted and seeded one day before the stimulation at 1.5×10^4 cells per well in 96-well cell culture plates. […]
For each screen result a graphical documentation was performed. A numerical score, describing the graphical results, was determined for each compound. […]
The baseline result (measured with addition of the EC50 concentration of the receptor-specific ligand) for each cell culture plate was measured as described above. Antagonistic effects were measured by down regulation compared to the baseline. […]

human TLR8 (hTLR8) = target: T2, human TLR8 (hTLR8) (Homo sapiens, UniProt Q9NR97); experiment: Antagonist screen, hTLR8-NFκB-293 cells, NF-κB-luciferase reporter, with EC50 of R848; conditions: compound at 0.5, 5, 50 μg/ml, EC50 concentration of R848, 16 h
T2 construct: expressed in transfected cells
T2 sequence (Q9NR97 27-1041): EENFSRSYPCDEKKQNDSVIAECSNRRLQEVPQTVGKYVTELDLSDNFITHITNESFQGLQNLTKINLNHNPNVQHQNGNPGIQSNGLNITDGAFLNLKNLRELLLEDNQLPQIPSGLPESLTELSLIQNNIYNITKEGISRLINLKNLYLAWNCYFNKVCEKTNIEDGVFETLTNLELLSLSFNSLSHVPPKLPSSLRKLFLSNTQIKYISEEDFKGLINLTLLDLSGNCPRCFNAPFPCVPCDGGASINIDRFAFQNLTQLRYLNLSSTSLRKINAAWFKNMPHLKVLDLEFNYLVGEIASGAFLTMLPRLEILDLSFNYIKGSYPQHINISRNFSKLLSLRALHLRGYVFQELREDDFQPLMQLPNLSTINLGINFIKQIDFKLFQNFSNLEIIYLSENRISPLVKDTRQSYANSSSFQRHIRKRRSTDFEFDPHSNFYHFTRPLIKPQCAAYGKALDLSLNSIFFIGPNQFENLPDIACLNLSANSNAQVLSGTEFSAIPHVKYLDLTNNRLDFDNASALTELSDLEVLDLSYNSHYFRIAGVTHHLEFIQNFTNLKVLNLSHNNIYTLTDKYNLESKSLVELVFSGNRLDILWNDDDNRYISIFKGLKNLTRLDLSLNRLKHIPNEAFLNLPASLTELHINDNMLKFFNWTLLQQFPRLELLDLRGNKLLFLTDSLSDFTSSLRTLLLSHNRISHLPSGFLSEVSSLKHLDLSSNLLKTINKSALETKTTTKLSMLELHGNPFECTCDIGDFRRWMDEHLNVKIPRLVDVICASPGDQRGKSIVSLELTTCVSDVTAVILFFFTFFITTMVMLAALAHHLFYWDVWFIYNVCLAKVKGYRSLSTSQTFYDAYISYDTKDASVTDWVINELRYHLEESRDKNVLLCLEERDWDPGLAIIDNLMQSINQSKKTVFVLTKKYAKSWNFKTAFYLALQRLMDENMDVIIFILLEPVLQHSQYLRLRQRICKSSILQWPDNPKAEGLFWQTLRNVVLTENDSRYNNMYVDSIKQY
Method: (§1) The method is described in greater detail as follows. The cells for each individual cell clone (hTLR3-NFκB-293, hTLR7-NFκB-293, hTLR8-NFκB-293 and hTLR9-NFκB-293) were counted and seeded one day before the stimulation at 1.5×10^4 cells per well in 96-well cell culture plates. To become adherent the cells were incubated after seeding overnight at 37° C. in 5% CO2 humidified air.
(§2) The screen for each compound was performed at the same time for all of the receptors TLR3, TLR7, TLR8 and TLR9. […]
(§3) The baseline result (measured with addition of the EC50 concentration of the receptor-specific ligand) for each cell culture plate was measured as described above. Antagonistic effects were measured by down regulation compared to the baseline. Antagonists were scored as follows: • 13: compounds for which there was clear down regulation at 0.5 μg/ml, 5 μg/ml, and 50 μg/ml; • 12: compounds for which there was clear down regulation at 5 μg/ml and 50 μg/ml; • 11: compounds for which there was clear down regulation only at 50 μg/ml; • —: compounds for which there was no clear down regulation even at 50 μg/ml. […]
(§4) Results were expressed as fold induction over baseline luciferase activity measured in the absence of R848. […]

human TLR7 (hTLR7) = target: T3, human TLR7 (hTLR7) (Homo sapiens, UniProt Q9NYK1); experiment: Antagonist screen, hTLR7-NFκB-293 cells, NF-κB-luciferase reporter, with EC50 of R848; conditions: compound at 0.5, 5, 50 μg/ml, EC50 concentration of R848, 16 h
T3 construct: expressed in transfected cells
T3 sequence (Q9NYK1 27-1049): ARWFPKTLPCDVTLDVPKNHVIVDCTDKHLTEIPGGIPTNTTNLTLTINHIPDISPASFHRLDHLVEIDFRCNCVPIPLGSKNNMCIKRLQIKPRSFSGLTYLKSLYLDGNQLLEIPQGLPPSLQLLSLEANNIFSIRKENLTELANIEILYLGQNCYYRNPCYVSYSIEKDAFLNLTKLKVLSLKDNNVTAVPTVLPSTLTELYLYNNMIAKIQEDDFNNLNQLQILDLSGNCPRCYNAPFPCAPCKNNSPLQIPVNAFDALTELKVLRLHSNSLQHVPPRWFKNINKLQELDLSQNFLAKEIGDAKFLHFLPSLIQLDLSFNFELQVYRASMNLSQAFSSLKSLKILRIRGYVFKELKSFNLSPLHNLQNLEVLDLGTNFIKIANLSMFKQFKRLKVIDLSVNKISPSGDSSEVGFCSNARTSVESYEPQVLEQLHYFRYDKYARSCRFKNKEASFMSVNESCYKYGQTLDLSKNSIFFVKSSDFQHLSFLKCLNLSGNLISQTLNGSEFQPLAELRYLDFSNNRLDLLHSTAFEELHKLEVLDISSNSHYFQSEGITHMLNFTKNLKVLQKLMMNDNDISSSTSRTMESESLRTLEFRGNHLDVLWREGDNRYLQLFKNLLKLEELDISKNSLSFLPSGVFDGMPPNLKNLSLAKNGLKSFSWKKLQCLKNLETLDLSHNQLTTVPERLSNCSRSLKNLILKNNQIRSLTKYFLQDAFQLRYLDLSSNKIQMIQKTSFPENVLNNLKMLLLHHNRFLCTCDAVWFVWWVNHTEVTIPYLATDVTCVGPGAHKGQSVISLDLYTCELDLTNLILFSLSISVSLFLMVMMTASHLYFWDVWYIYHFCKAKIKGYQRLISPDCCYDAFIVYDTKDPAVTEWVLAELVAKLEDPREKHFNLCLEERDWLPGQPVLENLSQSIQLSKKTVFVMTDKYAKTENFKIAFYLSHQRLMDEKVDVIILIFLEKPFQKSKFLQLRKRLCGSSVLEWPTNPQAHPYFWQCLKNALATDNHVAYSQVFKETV
Method: as §1, §2, §3, §4

human TLR3 (hTLR3) = target: T4, human TLR3 (hTLR3) (Homo sapiens, UniProt O15455); experiment: Antagonist screen, hTLR3-NFκB-293 cells, NF-κB-luciferase reporter, with EC50 of poly(I:C); conditions: compound at 0.5, 5, 50 μg/ml, EC50 concentration of poly(I:C), 16 h
T4 construct: expressed in transfected cells
T4 sequence (O15455 24-904): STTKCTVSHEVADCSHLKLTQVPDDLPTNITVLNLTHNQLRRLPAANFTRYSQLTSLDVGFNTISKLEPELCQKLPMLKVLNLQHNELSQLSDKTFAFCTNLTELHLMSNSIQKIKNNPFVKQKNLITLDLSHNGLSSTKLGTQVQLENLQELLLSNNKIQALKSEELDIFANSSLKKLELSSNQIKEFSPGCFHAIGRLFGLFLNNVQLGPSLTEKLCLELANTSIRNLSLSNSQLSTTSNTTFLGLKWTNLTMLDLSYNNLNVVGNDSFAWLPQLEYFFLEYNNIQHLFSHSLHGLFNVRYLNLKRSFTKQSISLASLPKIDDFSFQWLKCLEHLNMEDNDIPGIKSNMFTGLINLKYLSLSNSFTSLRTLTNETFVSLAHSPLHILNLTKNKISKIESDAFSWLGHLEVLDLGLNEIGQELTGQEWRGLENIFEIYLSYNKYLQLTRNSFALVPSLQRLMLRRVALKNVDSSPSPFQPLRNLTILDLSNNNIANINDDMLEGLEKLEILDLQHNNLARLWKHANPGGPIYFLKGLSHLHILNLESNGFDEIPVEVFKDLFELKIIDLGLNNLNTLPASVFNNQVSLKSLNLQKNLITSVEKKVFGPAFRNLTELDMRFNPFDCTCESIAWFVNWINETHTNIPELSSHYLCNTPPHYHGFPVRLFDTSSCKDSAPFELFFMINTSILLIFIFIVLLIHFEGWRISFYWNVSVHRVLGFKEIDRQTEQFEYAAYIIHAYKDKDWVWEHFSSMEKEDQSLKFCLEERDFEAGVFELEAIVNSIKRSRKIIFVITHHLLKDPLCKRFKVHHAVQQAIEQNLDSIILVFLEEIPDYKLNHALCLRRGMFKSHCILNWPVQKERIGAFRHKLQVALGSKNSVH
Method: as §1, §2, §3
Results were expressed as fold induction over baseline luciferase activity measured in the absence of poly(I:C). […]

CN(C)CCOC(c1ccccc1)c1ccccc1.Cl [compound 65, Diphenhydraminehydrochloride]
hTLR9 (inhibitory effect, antagonist score) (human TLR9 (hTLR9)): 11 (compounds for which there was clear down regulation only at 50 μg/ml)
hTLR8 (inhibitory effect, antagonist score) (human TLR8 (hTLR8)): — (compounds for which there was no clear down regulation even at 50 μg/ml)
hTLR7 (inhibitory effect, antagonist score) (human TLR7 (hTLR7)): — (compounds for which there was no clear down regulation even at 50 μg/ml)
hTLR3 (inhibitory effect, antagonist score) (human TLR3 (hTLR3)): — (compounds for which there was no clear down regulation even at 50 μg/ml)
